PubChem BioAssay AID1259308, NCATS – 2017

- Assay: 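Candidate targets for better recombinant protein yield in mammalian cells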 (primary screen)
- Cells: human HEK293 embryonic kidney cells stably expressing firefly luciferase (HEK-CMV-Luc2-Hygro)
- Reagents: single siRNA against human genes, 0.8 pmol siRNA per well
- Duration: 72 h
- Read-out: 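Luciferase light (ONE-Glo) measured on one replicate plate set and viability (CellTiter-Glo) on the other, scaled to a negative control siRNA, with robust z-scores and luciferase per cell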
- Reading the numbers: total luciferase, z-score and total luciferase, % of control: higher = more reporter protein produced; luciferase per cell, z-score: higher = more reporter output per viable cell; viable cells, % of control: higher = more viable cells
- Rule for the call: 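An siRNA counts as active if its total luciferase robust z-score exceeds 3; genes with two or more such siRNAs out of three were retested with fresh siRNAs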
- Calls: active = raised luciferase; inactive = no rise
The deposit covers about 59,000 reagents; below is a random part of them. Over the whole deposit, about 1,510 (2.6%) were called active. 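Calls use total luciferase alone and ignore viability, so some active siRNAs may act by altering cell number.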 Unmarked entries are inactive. The numbers tell different reagents against one gene apart. No sequences are given here.

gene symbol	siRNA no.	total luciferase, z-score	total luciferase, % of control	luciferase per cell, z-score	viable cells, % of control
GOLIM4 (GeneID 27333)	1	-0.484	72.3	-0.494	92
GOLIM4 (GeneID 27333)	2	-0.0878	80.1	-0.398	99.4
GOLIM4 (GeneID 27333)	3	0.598	93.8	0.753	85.9
CCNB1 (GeneID 891)	1	-0.901	64	-0.728	86.6
CCNB1 (GeneID 891)	2	-0.244	77	-0.667	103
CCNB1 (GeneID 891)	3	-0.388	74.2	-0.322	90.2
ZNF34 (GeneID 80778)	1	1.82	118	1.96	78.8
ZNF34 (GeneID 80778)	2	0.092	83.7	-0.237	99.6
ZNF34 (GeneID 80778)	3	2.51	132	1.79	92
ATP6V1E1 (GeneID 529)	1	-1.1	60	-1.19	91.8
ATP6V1E1 (GeneID 529)	2	-0.938	63.2	-1.16	95.8
ATP6V1E1 (GeneID 529)	3	-1.94	43.3	-2.97	106
SORBS3 (GeneID 10174)	1	1.73	116	1.81	80.8
SORBS3 (GeneID 10174)	2	0.983	101	0.347	103
SORBS3 (GeneID 10174)	3	2.54	133	2.29	81
ZNF684 (GeneID 127396)	1	-0.0651	80.6	0.117	87.3
ZNF684 (GeneID 127396)	2	-0.256	76.8	-0.217	90.9
ZNF684 (GeneID 127396)	3	-0.216	77.6	-0.327	94.5
CENPE (GeneID 1062)	1	-0.721	67.5	-0.277	81.2
CENPE (GeneID 1062)	2	-0.00336	81.8	-0.4	102
CENPE (GeneID 1062)	3	-0.956	62.9	-0.466	79.4
IFNB1 (GeneID 3456)	1	0.235	86.6	-0.176	101
IFNB1 (GeneID 3456)	2	-0.305	75.8	0.216	80
IFNB1 (GeneID 3456)	3	-1.61	49.8	-2.61	111
CALHM4 (GeneID 221301)	1	-2	42.1	0.54	40.8
CALHM4 (GeneID 221301)	2	-0.156	78.8	-0.364	96.9
CALHM4 (GeneID 221301)	3	-1.12	59.6	-1	86.7

7 of these entries in another layout.
CCNB1 (GeneID 891) #3: total luciferase, z-score = -0.388; total luciferase, % of control = 74.2; luciferase per cell, z-score = -0.322; viable cells, % of control = 90.2
ZNF34 (GeneID 80778) #1: total luciferase, z-score = 1.82; total luciferase, % of control = 118; luciferase per cell, z-score = 1.96; viable cells, % of control = 78.8
ZNF34 (GeneID 80778) #2: total luciferase, z-score = 0.092; total luciferase, % of control = 83.7; luciferase per cell, z-score = -0.237; viable cells, % of control = 99.6
ZNF34 (GeneID 80778) #3: total luciferase, z-score = 2.51; total luciferase, % of control = 132; luciferase per cell, z-score = 1.79; viable cells, % of control = 92
ATP6V1E1 (GeneID 529) #1: total luciferase, z-score = -1.1; total luciferase, % of control = 60; luciferase per cell, z-score = -1.19; viable cells, % of control = 91.8
ATP6V1E1 (GeneID 529) #2: total luciferase, z-score = -0.938; total luciferase, % of control = 63.2; luciferase per cell, z-score = -1.16; viable cells, % of control = 95.8
ATP6V1E1 (GeneID 529) #3: total luciferase, z-score = -1.94; total luciferase, % of control = 43.3; luciferase per cell, z-score = -2.97; viable cells, % of control = 106

More reagents:
gene symbol	siRNA no.	total luciferase, z-score	total luciferase, % of control	luciferase per cell, z-score	viable cells, % of control
ZNF229 (GeneID 7772)	1	-1.08	60.4	-1.16	91.5
ZNF229 (GeneID 7772)	2	-0.211	77.7	0.784	70.6
ZNF229 (GeneID 7772)	3	-0.123	79.4	0.0314	88
ZNF846 (GeneID 162993)	1	1.79	117	1.73	83.1
ZNF846 (GeneID 162993)	2	0.0457	82.8	0.12	89.6
ZNF846 (GeneID 162993)	3	1.85	119	2.63	66.4
VGLL2 (GeneID 245806)	1	-0.25	76.9	0.0431	85
VGLL2 (GeneID 245806)	2	1.86	119	1.35	93
VGLL2 (GeneID 245806)	3	-0.36	74.7	-0.16	87.1
ADGRG7 (GeneID 84873)	1	1.55	113	1.28	90.1
ADGRG7 (GeneID 84873)	2	0.918	100	1.07	84.4
ADGRG7 (GeneID 84873)	3	1.19	106	0.646	99.6
CLDN15 (GeneID 24146)	1	0.492	91.7	0.0322	102
CLDN15 (GeneID 24146)	2	3.9 (active)	160	2.88	83.6
CLDN15 (GeneID 24146)	3	1.83	118	0.53	115
CLCNKA (GeneID 1187)	1	-0.117	79.6	-0.283	95.8
CLCNKA (GeneID 1187)	2	0.511	92.1	-0.0473	104
CLCNKA (GeneID 1187)	3	1.69	115	0.541	112
MAGEA10 (GeneID 4109)	1	-0.555	70.8	-0.232	84.1
MAGEA10 (GeneID 4109)	2	1.27	107	1.22	86.7
MAGEA10 (GeneID 4109)	3	0.986	101	0.723	93.8
SSX3 (GeneID 10214)	1	1.64	114	1.77	80.2
SSX3 (GeneID 10214)	2	-0.561	70.7	-0.791	97.3
SSX3 (GeneID 10214)	3	-1.24	57.2	-1.15	86.7
SPATA4 (GeneID 132851)	1	0.0268	82.4	0.653	77.6
SPATA4 (GeneID 132851)	2	0.243	86.7	0.374	87.8
SPATA4 (GeneID 132851)	3	-0.826	65.5	-0.979	94.7
TMEM123 (GeneID 114908)	1	-0.134	79.2	0.134	85.5
TMEM123 (GeneID 114908)	2	0.536	92.6	0.829	83.1
TMEM123 (GeneID 114908)	3	-2.31	35.9	0.177	38.2
